{"source": "PubChem BioAssay AID2685", "about": "(National Center for Advancing Translational Sciences (NCATS), 2010)", "note": "The campaign covered roughly 320,000 compounds. About 2,100 (0.66%) were called active. The inconclusive results got no clear call from the source; some entries with a clear call stand among them for comparison. Calls come from the whole dose curve; as a rule, active = well fitted inhibition curve with a large enough effect in the signal ratio, with a control signal flat (not every such curve was filed as active); inconclusive = small, poorly fitted or top-dose-only effect, or effect the other way, or a change in a side signal; inactive = flat fitted curve, though single readings scatter; the % refers to the signal ratio. Potencies beside an inconclusive call are fits to weak or partial responses and may not hold up. % is set by controls: 0 for no effect and ±100 for the full control effect; potency is the fitted concentration of half-maximal effect."}
{"assay": "qHTS Assay for Lipid Storage Modulators in Drosophila S3 Cells", "conditions": "BODIPY lipid droplet fluorescence, 18-24 h, cells fed with added oleic acid; lipid storage change, negative = inhibition: at 46.1 µM (top of the series) unless noted", "summary_of_the_method": "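Drosophila S3 cells got compounds at several concentrations plus oleic acid (400 uM solution). Laser-scanning cytometry with 488 nm excitation read lipid droplets at 500-530 nm and cells at 575-640 nm. Percent activity was relative to 20 uM Triacsin C.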"}
{"smiles": "CC(=O)Nc1cccc(OCCCOc2ccc([N+](=O)[O-])cc2)c1", "lipid storage change, negative = inhibition": "inconclusive: 12.8%"}
{"smiles": "COc1ccccc1CNCC(c1ccccc1)c1ccccc1", "Potency": "active: 1.46 µM"}
{"smiles": "O=C(CN1CCN(CC(=O)Nc2ccccc2Cl)CC1)NCC1(N2CCOCC2)CCCCC1", "lipid storage change, negative = inhibition": "inconclusive"}
{"smiles": "C=CCNC(=O)COc1c(C)ccc(C)c1C", "lipid storage change, negative = inhibition": "inconclusive: 56.1% [at 0.00295 µM]"}
{"smiles": "CCCc1nnc(NC(=O)c2c(O)c3c([nH]c2=O)CCCC3)s1", "lipid storage change, negative = inhibition": "inconclusive: -4.36%"}
{"smiles": "O=S1(=O)N=C(Nc2ccc(O)cc2)c2ccccc21", "lipid storage change, negative = inhibition": "inconclusive: -19.3%"}
{"smiles": "Cc1cc(OCC(O)CN2C(C)CCCC2C)ccc1C(C)C", "note": "(stereo unspecified)", "lipid storage change, negative = inhibition": "inconclusive: -44.1%"}
{"smiles": "O=C(NCc1cccnc1)c1cccc(S(=O)(=O)N2CCCC2)c1", "lipid storage change, negative = inhibition": "inconclusive: -47.6%"}
{"smiles": "CN(Cc1ccccc1)C(=O)C(=O)c1cn(CC(=O)N2CCCC2)c2ccccc12", "lipid storage change, negative = inhibition": "inconclusive: 14.1%"}
{"smiles": "COc1ccc(-c2nc(SCc3ccccc3)n(C(=O)c3ccco3)n2)cc1", "lipid storage change, negative = inhibition": "inconclusive: -2.34%"}
{"smiles": "Cc1ccc(CC2S/C(=C(/C#N)C(=O)NCc3ccco3)N(c3ccccc3)C2=O)cc1", "note": "(stereo unspecified)", "Potency": "inconclusive: 14.6 µM [activator, partial curve]"}
{"smiles": "Cc1ccc(C)c(NS(=O)(=O)c2cc(C(=O)N3CCc4ccccc4C3)ccc2Cl)c1", "lipid storage change, negative = inhibition": "inconclusive: -50.7%"}
{"smiles": "COc1ccccc1C1(CCNS(=O)(=O)c2ccc(C)cc2)CCOC(C(C)C)C1", "note": "(stereo unspecified)", "lipid storage change, negative = inhibition": "inconclusive: -38.8%"}
{"smiles": "NNC(=O)c1sccc1OCc1ccc(F)cc1", "lipid storage change, negative = inhibition": "inconclusive: -13.7%"}
{"smiles": "CCOc1ccc(CCNC(=O)COC(=O)/C=C/c2ccccc2OC)cc1OCC", "lipid storage change, negative = inhibition": "inconclusive"}
{"smiles": "CCS(=O)(=O)c1nc(S(=O)(=O)c2ccc(C)cc2)c(N2CC(C)OC(C)C2)s1", "note": "(stereo unspecified)", "Potency": "inconclusive: 8.2 µM [falling, partial curve, poor fit]"}
{"smiles": "CCNS(=O)(=O)c1ccc(NC(=O)c2ccccc2OCC)cc1", "Potency": "inconclusive: 2.91 µM [activator, full curve]"}
{"smiles": "OC1CCCN(C(=S)Nc2ccc(SC(F)F)cc2)C1", "note": "(stereo unspecified)", "lipid storage change, negative = inhibition": "inconclusive: 12.9%"}
{"smiles": "COc1cc(C(=O)OCC(=O)NC(N)=O)cc(CN2C(=O)c3ccccc3C2=O)c1OC", "lipid storage change, negative = inhibition": "inconclusive: 11.3%"}
{"smiles": "COc1ccccc1NS(=O)(=O)c1cccc(C(=O)NCC(c2ccco2)N2CCCC2)c1", "note": "(stereo unspecified)", "lipid storage change, negative = inhibition": "inconclusive: 26.6%"}
{"smiles": "Nc1ncc(-c2cc3ccccc3oc2=O)s1", "lipid storage change, negative = inhibition": "inconclusive: 9.59%"}
{"smiles": "COc1ccc(C2/C(=C(/O)c3ccc4c(c3)CC(C)O4)C(=O)C(=O)N2Cc2cccnc2)cc1", "note": "(stereo unspecified)", "lipid storage change, negative = inhibition": "inconclusive: 47.9%"}
{"smiles": "c1ccc(-n2nnnc2CN2CCOCC2)cc1", "lipid storage change, negative = inhibition": "inactive: -2.17%"}
{"smiles": "COc1ccccc1CNc1ccc(Br)cn1", "lipid storage change, negative = inhibition": "inconclusive: -11.2%"}
{"smiles": "Cc1cccc(NC(=O)/C(C#N)=C/c2cn(CC(=O)NCc3ccco3)c3ccccc23)c1", "lipid storage change, negative = inhibition": "inconclusive: 11%"}
{"smiles": "CC(O)CNc1nc2c(c(=O)n(C)c(=O)n2C)n1Cc1cccc(Br)c1", "note": "(stereo unspecified)", "lipid storage change, negative = inhibition": "inconclusive: 19.6%"}
{"smiles": "Cc1ccnc(NS(=O)(=O)c2ccc(NC(=O)C3CC=CCC3C(=O)O)cc2)n1", "note": "(stereo unspecified)", "lipid storage change, negative = inhibition": "inconclusive: 17.9%"}
{"smiles": "CS(=O)(=O)CCC(C(=O)n1nnc2ccccc21)N1C(=O)c2ccccc2C1=O", "note": "(stereo unspecified)", "lipid storage change, negative = inhibition": "inconclusive: -19.1%"}
{"smiles": "CCOc1ccc(N=NC2C(=O)N(C(N)=S)N=C2C)cc1", "note": "(stereo unspecified)", "Potency": "active: 2.31 µM"}
{"smiles": "Cc1onc(-c2ccccc2)c1C(=O)Nc1ccc(S(=O)(=O)N2CCCCC2)cc1", "Potency": "inconclusive: 16.4 µM [falling, single point]"}
{"smiles": "COc1cc(C(=O)Nc2ccc(C(=O)c3cccs3)cc2)cc(OC)c1OC", "lipid storage change, negative = inhibition": "inconclusive: -100%"}
{"smiles": "COc1ccccc1N=C1NC(=O)/C(=C/c2ccc(N(C)C)cc2)S1", "Potency": "active: 10.3 µM"}
{"smiles": "COC(=O)c1c(C)[nH]c(C(=O)C(C)OC(=O)C2=NNC(=O)CC2)c1C", "note": "(stereo unspecified)", "lipid storage change, negative = inhibition": "inconclusive: 36.2%"}
{"smiles": "CCCn1c2ccccc2c2cnn(CC(=O)NCCOC)c(=O)c21", "lipid storage change, negative = inhibition": "inconclusive: 78.8%"}
{"smiles": "O=C(NNC(=O)c1cc(-c2ccncc2)nc2ccccc12)Nc1ccc(F)cc1", "lipid storage change, negative = inhibition": "inconclusive: 14.4%"}
{"smiles": "CCCCn1nc(C(=O)Nc2cccc(C(=O)NC3CC3)c2)c2ccccc2c1=O", "Potency": "inconclusive: 16.4 µM [falling, single point]"}
{"smiles": "O=C(NCc1cccs1)c1cc2ccccc2o1", "lipid storage change, negative = inhibition": "inconclusive: 20%"}
{"smiles": "CC1CCN(S(=O)(=O)c2cn(CC(=O)N3CCN(C)CC3)c(=O)c3ccccc23)CC1", "Potency": "inconclusive: 29.1 µM [activator, single point]"}
{"smiles": "CCS(=O)(=O)N1Cc2ccccc2CC1C(=O)OCC(=O)N(C(C)C)C(C)C", "note": "(stereo unspecified)", "lipid storage change, negative = inhibition": "inconclusive: -53.3%"}
{"smiles": "Cc1ccc([N+](=O)[O-])cc1NC(=O)C1CCCC1", "Potency": "inconclusive: 0.58 µM [activator, full curve, poor fit]"}
{"smiles": "COc1ccccc1NS(=O)(=O)c1ccc2oc(SCC(C)=O)nc2c1", "lipid storage change, negative = inhibition": "inconclusive: -22.9%"}
{"smiles": "O=C(CSc1nc(-c2ccco2)cc(C(F)(F)F)n1)NCCCN1CCOCC1", "lipid storage change, negative = inhibition": "inconclusive: -15%"}
{"smiles": "O=C(O)CN=CC1=C(O)CC(c2ccccc2)CC1=O", "note": "(stereo unspecified)", "lipid storage change, negative = inhibition": "inconclusive: 9.26%"}
{"smiles": "COC(=O)C1CCN(C(=O)CSc2nnc(-c3ccccc3)o2)CC1", "lipid storage change, negative = inhibition": "inconclusive: 38.3%"}
{"smiles": "NC(=O)C1CC(=O)N(c2ccc(OCc3ccc(F)cc3)cc2)C1", "note": "(stereo unspecified)", "Potency": "inconclusive: 6.51 µM [activator, single point]"}
{"smiles": "O=C(NNC(=O)c1ccccc1F)c1ccc(NS(=O)(=O)c2ccc(F)cc2)cc1", "lipid storage change, negative = inhibition": "inconclusive"}
{"smiles": "COc1cc2nc(NCC3CCCO3)n3nc(-c4cccnc4)nc3c2cc1OC", "note": "(stereo unspecified)", "lipid storage change, negative = inhibition": "inconclusive: 9.37%"}
{"smiles": "Cc1ccc(C2=NN(S(=O)(=O)c3ccccc3)C(c3ccco3)C2)cc1", "note": "(stereo unspecified)", "lipid storage change, negative = inhibition": "inconclusive: -41.9%"}
{"smiles": "Cc1ccc(S(=O)(=O)NCC(=O)N/N=C/c2ccc(Cl)cc2Cl)cc1", "Potency": "inconclusive: 29.1 µM [cytotoxic, single point]"}
{"smiles": "O=S(=O)(Nc1ccncc1)c1cc(Cl)c(Cl)cc1Cl", "Potency": "inconclusive: 4.61 µM [falling, single point]"}
{"smiles": "O=C(COC(=O)c1ccccc1NS(=O)(=O)c1cccs1)NC1CCCCC1", "Potency": "inconclusive: 32.6 µM [falling, single point]"}
